Results as given in publication PMC5945610.
No constants are given. Whether binding was seen depends on the method and setting. In cells and extracts the contact can be indirect. Binding calls can cover weak binding; strength is not graded here. Tags and fused reporters may be left off the sequences shown.

Key:
[1] = biological target: C-terminal domain of USP7 (human); experiment: co-IP; HEK293 cells transfected with tagged constructs; 3 ug antibody overnight at 4 C, protein A + G agarose beads, immunoblot; IgG as negative control
[2] = biological target: core domain of USP7 (human); experiment: as above

binding [1]: binds | binding [2]: binds
B1: HA-TSPY1 (protein, UniProt Q01534 1-308)
chain: MRPEGSLTYRVPERLRQGFCGVGRAAQALVCASAKEGTAFRMEAVQEGAAGVESEQAALGEEAVLLLDDIMAEVEVVAEEEGLVERREEAQRAQQAVPGPGPMTPESAPEELLAVQVELEPVNAQARKAFSRQREKMERRRKPHLDRRGAVIQSVPGFWANVIANHPQMSALITDEDEDMLSYMVSLEVGEEKHPVHLCKIMLFFRSNPYFQNKVITKEYLVNITEYRASHSTPIEWYPDYEVEAYRRRHHNSSLNFFNWFSDHNFAGSNKIAEILCKDLWRNPLQYYKRMKPPEEGTETSGDSQLLS
